The values below come from PubChem BioAssay AID1347423 (Functional Genomics Laboratory (NCATS/FGL), 2020).

The campaign covered roughly 52,000 sequences. About 210 (0.4%) were called active.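 How the source made its calls: active means gene whose silencing raises cell survival under the drug, median off-target-corrected z-score across its silencing RNAs 2 or more; inactive means the rest.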 This is one part of the list.

The assay can be described thus: Resistance to Poly (ADP-Ribose) Polymerase inhibitor: Gene Identification via Genome-wide siRNA Screen. As to conditions: mouse BRCA2 R2336H ES cells, olaparib, CellTiter-Glo viability; active compounds read high. An outline of the steps:
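Mouse BRCA2 R2336H ES cells were reverse-transfected with siRNA (20 nM final), treated at 48 h with 500 nM olaparib, and read by CellTiter-Glo after 72 h. Scores: MAD-based z per siRNA, median per gene, seed off-target correction.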
In general terms: Cellular ATP, detected with luciferase, serves as a proxy for viable cell number.
As to “GGAAGUGUAUGUUAUUUCATT against B230325K18Rik”, the z-score was inactive: 0.028.
For the sequence GCAACCCAUAGUCUACCCUTT against Hoxc4, the z-score is inactive: 0.559.
Regarding GCUAUAAGGAAAGAGUAGCTT against Trar3, the z-score is inactive: -0.147.
Turning to GGUUUAGGCAACUAAGUUGTT against Stat5a, the z-score was inactive: 1.15.
“GGAAGUCACCUUUUAUCCUTT against 1810008K03Rik”: the z-score is inactive: 0.225.
In the case of CGAUGCUGACUGAGAUCAUTT against Rad23a, the z-score is inactive: 1.9.
Regarding GCACUAAUACUAACCAUGGTT against Rhox12, the z-score was inactive: 0.413.
For “GGAGCAGAUAAUGUACAUATT against 1700001M19Rik”, the z-score was inactive: 0.984.
Regarding CCACUCAAGACCAAAUGGATT against Arx, the z-score is inactive: 1.17.
As for CCUUCCACACCUAUUCCAATT against Kcna2, the z-score is inactive: -0.803.
Regarding GGCUUACGAGAAAAUAGAATT against Phf8, the z-score was inactive: 1.14.
With GGAUUGCUUCAAUGAGGAATT against C2a, the z-score was inactive: -1.52.
As for CGCAUGACCUUCCAGAUGCTT against Myoz1, the z-score is inactive: -0.762.
For GGAGGUAUUGUACAUCAAUTT against Nol4, the z-score is inactive: 2.07.
For CGAGCUAUAUCCCAUGGAGTT against Penk1, the z-score is inactive: 0.605.
Consider UGCCCAAGACUCAGAAGUCTT against Igf1, for which the z-score is inactive: 0.521.
For CCAGAGAUUCCCACACGUCTT against Havcr1, the z-score was inactive: 0.264.
As for GCCAGGCUAUAUUUCAUCCTT against Asb15, the z-score is inactive: -0.164.
The same measure for GCUAGCAUGCAUCUCUACATT against Asb17: inactive: -0.431.
Consider CCUGUUUACAAGGAAUUGATT against Itgb1, for which the z-score was inactive: 0.411.
For the sequence CCCUAACUCUGUUAAUGCATT against Casp14, the z-score is inactive: -0.855.
Turning to GGAGAUACGCCGGAGACUATT against Olfr645, the z-score was inactive: -1.65.
GGACAUUUUCUUUGGAAAATT against Ccnl1: the z-score is inactive: -1.11.
GGCCACAGUGACUUUCAUCTT against Eif4el3: the z-score was inactive: 0.0281.
Then CCAGUGCUAGCUUCUACGATT against Dusp3, with inactive: -0.288; and GGGAGUCAACUCUAUUUAUTT against AW549877, with inactive: 0.41; and GGGAUUAUACUAAUCCAACTT against Wdrx1, with inactive: 0.255.
Then “CCGAGUAAUUAACUAUAAGTT against 4930579C15Rik”, with inactive: -0.256.
Take “CGCAAUAAAGAAUUCUCCCTT against 2810428I15Rik”: the z-score is inactive: -0.93.
On to CCUACGUGAUCAACAAGCATT against Frda, for which the z-score was inactive: -0.29.
For GGACAUUGACACUUCCCUGTT against P2rx5, the z-score is inactive: -1.59.
Take CGAAGGACCAGGGAAUCUGTT against Tsg-5: the z-score is inactive: -0.711.
As for GGAGAGAAAAACCAACAGCTT against Foxa1, the z-score was inactive: 2.88.
GGGCUUAAGGGUUUCUGUUTT against Hist1h3g: the z-score is inactive: -0.444.
Regarding “GGGCUCACCUCUCUCUUUGTT against 1110007H17Rik”, the z-score is inactive: -1.51.
Regarding CCGAAUGAGCUUUACCUAUTT against Ctsj, the z-score was inactive: 0.341.
Consider CGAGGUCCUUGAUUAUAUCTT against C2ta, for which the z-score is inactive: 1.04.
Consider GCCUCAAUAAAUUGUCAGCTT against Slc25a17, for which the z-score was inactive: 0.336.
In the case of GGUUUUAUGCAUUAGCUCCTT against Lipf, the z-score is inactive: 0.442.
Turning to CCUUGGUGGAAUCGUUCCUTT against Timd2, the z-score was inactive: -1.49.
As for GGAACAGCAGCAGAGACAATT against Ppargc1a, the z-score was inactive: 0.674.
As to GGAUGUUGGCCUCUUUCUCTT against MOR253-5, the z-score was inactive: 1.13.
As for CCAGAAUGUCUGUAAGGCATT against Rassf5, the z-score is inactive: -0.345.
Consider CGGACAACUUUUGAAGCUGTT against Spata5l1, for which the z-score was inactive: 0.247.
Then GGUUGAUCGCCUUAGAAAUTT against Etnk2, with inactive: -1.35.
For CGAGCUUUGCUUAAAAUCGTT against Pmp2, the z-score is inactive: -0.0483.
The same measure for GCUUCCAUGCCCAUGGAUATT against Crybb2: inactive: 0.427.
Take GGAAACUGAGCUUAAGAUUTT against Cald1: the z-score is inactive: 1.09.
For the sequence GGUGUUUCAUAUGGUUACUTT against Psma3, the z-score was inactive: -3.53.
Then CCACGAGAGCCUAAAGCUUTT against Msh5, with inactive: 0.379.
As to GGAACAAAGAGGUGAUGUUTT against Olfr109, the z-score was inactive: -1.35.
Consider GGAUUGUUGGUCCUCAAGUTT against Topbp1, for which the z-score is inactive: -2.32.
The same measure for GGCUGAAGAGGAUCGGUACTT against Atpi: inactive: -1.39.
With GGUGGAGUCUGGAAUUUCATT against Drd3, the z-score is inactive: -1.36.
As to GGCGAAAACGGUAAAGCCUTT against Hist1h1e, the z-score is inactive: -0.576.
Then GGAUUUAUUUAUGUCUUCCTT against Slc17a1, with inactive: -0.427; and GGAGCUUUCAGCUAAGACATT against Rassf4, with inactive: -1.5; and GGAAGUGGUCAUAUUCACGTT against Jag2, with inactive: 0.104.
GGAAAACUCAUGAUCACUUTT against Robo1: the z-score is inactive: 1.26.
Take GCCUCUGGACUACUAUAGATT against Gale: the z-score is inactive: 1.19.
On to GGCAAUGAACUGAGUUGCUTT against Ugt2a2, for which the z-score is inactive: 2.45.
The same measure for GGUGAUCUUAGCAAUGUUUTT against Pdk2: inactive: 0.103.
Then “CCACCUCAAGAUAUGGAUGTT against D19Ertd703e”, with inactive: -0.916; and GGACAUUCGGCCCUAUUGCTT against Got1, with inactive: -1.54.
Take GCCACGAUUUGCCUUAUUUTT against Litaf: the z-score was inactive: -0.894.
For the sequence GGGCUUACCGUAUAACUUUTT against Sdfr1, the z-score is inactive: 0.331.
In the case of CGAGAACAACACUUGGAAUTT against Ubxd2, the z-score is inactive: 0.554.
In the case of GGAAAAUGUAAGGACUUGATT against Ear5, the z-score was inactive: -0.368.
As for “GCAAUUCAGCUUAUAAGCATT against 1700007D05Rik”, the z-score is inactive: 0.221.
With GGUGGGAGUCAUUUUCCGUTT against P2rx1, the z-score is inactive: -0.39.
For the sequence “GGGAAACUCUCAGAUGAAGTT against 4933412E14Rik”, the z-score is inactive: -1.78.
With GGAGAAUCAAAGAAGAAGATT against Xpc, the z-score is inactive: -0.45.
The same measure for GGCAUUUAGUAAAACCCUUTT against Rnf144: inactive: -1.2.
Consider “GGAUCUCAUACAGAAUCCGTT against D14Ertd500e”, for which the z-score was inactive: 1.2.
The same measure for GGAAUAGAGAUAUCAGUAATT against Olfr866: inactive: -0.578; for GCGAUUGACUUUUACCGGATT against Mak3: inactive: -2.78; for GGACAAAUUCUCCUUUGACTT against Fkbp4: inactive: -0.53.
Turning to GGUCCUUGAUGAGUGUAAUTT against Erp29, the z-score was inactive: -0.25.
For “CCUUGUAGCUCUGAGGAUATT against 2310042E22Rik”, the z-score was inactive: -0.187.
As for GGACCAGUUAAAGUCACCATT against Atp4b, the z-score is inactive: -0.369.
Then GGCUAAUACCAAACCUAUATT against Tisp78, with inactive: -0.567; and ACCUGUGAUGGUGGAGACUTT against AF067061, with inactive: 2.08.
Consider GGGUCAUGGACAAUAGAAATT against Olfr52, for which the z-score was inactive: -0.244.
For the sequence “GGACUAUUCACACUAAGUCTT against 1110038F21Rik”, the z-score was inactive: -0.752.
Then UUGUAUUGAGUGGUUAAGCTT against LOC382686, with inactive: -0.473; and GGAACAAAAACUGGUGCGCTT against Emilin2, with inactive: 3.22.
The same measure for “UUGUUAUAGCACUUCCAAATT against 4921511C04Rik”: inactive: -0.397; for CGAGCAUAAAAGUUAUGUGTT against Chaf1b: inactive: -1.24.
Regarding GCUGUAGAGAUCAAUAGAGTT against Abcd2, the z-score is inactive: 0.149.
Then GGAGCAAUUGAGAAAGAAGTT against Moap1, with inactive: -0.504; and GCAAAACUUCGGAUAGUCATT against Gak, with inactive: 2.71.
Consider GGACGGUUACAAUGUGUACTT against Fgf21, for which the z-score was inactive: 0.193.
As to CGAGUAGUGAUGCUGUUGATT against Dhx33, the z-score was inactive: 0.223.
GGAAGAAAAAGCCGGGAAGTT against Fbxo3: the z-score was inactive: -0.625.
On to GCAGGUUCACGACACCAACTT against Sv2a, for which the z-score was inactive: -1.39.
Consider “GGAAGACAAGGUUUUAGCUTT against A430108B07Rik”, for which the z-score is inactive: 0.745.
For the sequence CGGGUCAAUUUGAAUGCAUTT against Polydom, the z-score is inactive: 0.379.
On to “GGAAAUCUACGAUUUCUAATT against D12Ertd553e”, for which the z-score is inactive: 2.17.
Then CCUUAGCAAUGGGAUUGAUTT against Rasl12, with inactive: 0.164; and GGGCUUUGGACAUCUCCUATT against Serpina3c, with inactive: -2.57; and GGGAAAACCGAAUAAAGAUTT against Ren2, with inactive: 0.786.
As to GGGAGAAUUAAACCUAAAGTT against Hus1, the z-score was inactive: -0.269.
Consider GGUACCACCAUGCUAUGGUTT against AY026312, for which the z-score was inactive: 1.66.
On to GCUGAAAAUGACCCGGAAGTT against Cftr, for which the z-score is inactive: -1.81.
Then GCAGUUAUGCCAGCUAUACTT against Hao3, with inactive: -2.37.
